# Laboratory results reported in the supplement of paper PMC8728848.
# This is one part of the list.
# B1: SP15308B-bot-339-22-339 (Bacteroides ovatus) (protein)
# chain: NEWEDEQYEQYVSFKAPIASGSDGVTTIYVRYKDNGKVTYQLPIIVSGSTVNSQDRDIHIAVDKDTLKTLNIERFSLYRPELWYTEMEEDKYEFPETVHIPAGSCVELLNIDFNLQDIDMLEKWVLPLTIVDDGSYAYQSHPRKNYAKALLKVVPFNNYSGSYTASSMKVYTYINGKPDTNARTTDKRTGYVVDNNSIFFYAGLINEDMDKDMRKKYKINVHFKEDGTLDMKQDDPSNEMEFELIGTPTYSSTSVMDATRPYLERRYVQIMFEYDFQDFTYGGSGTEVIPIKYRVAGSMTLLRNINTQIPDEDQQIEW
# Key:
# Test in all cases: glycan array binding signal (z-score within array); higher = stronger binding
# Conditions in all cases: glycan notation: IUPAC condensed, linker removed
# [1] = target: Gal(b1-4)GlcNAc(b1-6)Gal(b1-4)GlcNAc
# In short: (§1)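 The binding signal is a Z-score computed within each array. Data were drawn from 3228 arrays in the Consortium for Functional Glycomics database, restricted to those with a known protein sequence. Scores were averaged over arrays of the same protein sequence at different concentrations or buffers, and over linkers, and negative values can be taken as non-binding.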
# [2] = target: Gal(b1-4)GlcNAc(b1-6)GalNAc
# In short: as §1
# [3] = target: Gal(b1-4)GlcNAc(b1-6)[Gal(b1-3)]GalNAc
# In short: as §1
# [4] = target: Gal(b1-4)GlcNAc(b1-6)[Gal(b1-4)GlcNAc(b1-3)]GalNAc
# In short: as §1
# Gal(b1-4)GlcNAc6P = target: Gal(b1-4)GlcNAc6P
# In short: as §1
# Gal(b1-6)Gal = target: Gal(b1-6)Gal
# In short: as §1
# Gal3S(b1-3)GalNAc = target: Gal3S(b1-3)GalNAc
# In short: as §1
# Gal3S(b1-3)GlcNAc = target: Gal3S(b1-3)GlcNAc
# In short: as §1
# [5] = target: Gal3S(b1-3)[Fuc(a1-4)]GlcNAc
# In short: as §1
# Gal3S(b1-4)Glc = target: Gal3S(b1-4)Glc
# In short: as §1
# Gal3S(b1-4)Glc6S = target: Gal3S(b1-4)Glc6S
# In short: as §1
# Gal3S(b1-4)GlcNAc = target: Gal3S(b1-4)GlcNAc
# In short: as §1
# [6] = target: Gal3S(b1-4)[Fuc(a1-3)]Glc6S
# In short: as §1
# [7] = target: Gal3S(b1-4)[Fuc(a1-3)]GlcNAc
# In short: as §1
# [8] = target: Gal3S(b1-4)[Fuc(a1-3)]GlcNAc6S
# In short: as §1
# Gal3S4S(b1-4)GlcNAc = target: Gal3S4S(b1-4)GlcNAc
# In short: as §1
# Gal3S6S(b1-4)GlcNAc = target: Gal3S6S(b1-4)GlcNAc
# In short: as §1
# Gal3S6S(b1-4)GlcNAc6S = target: Gal3S6S(b1-4)GlcNAc6S
# In short: as §1
# Gal4S(b1-4)GlcNAc = target: Gal4S(b1-4)GlcNAc
# In short: as §1
# Gal4S6S(b1-4)GlcNAc = target: Gal4S6S(b1-4)GlcNAc
# In short: as §1
# Gal6P(b1-4)GlcNAc = target: Gal6P(b1-4)GlcNAc
# In short: as §1
# Gal6S(b1-3)GlcNAc = target: Gal6S(b1-3)GlcNAc
# In short: as §1
# Gal6S(b1-3)GlcNAc6S = target: Gal6S(b1-3)GlcNAc6S
# In short: as §1
# Gal6S(b1-4)Glc = target: Gal6S(b1-4)Glc
# In short: as §1
# Gal6S(b1-4)Glc6S = target: Gal6S(b1-4)Glc6S
# In short: as §1
# Gal6S(b1-4)GlcNAc = target: Gal6S(b1-4)GlcNAc
# In short: as §1
# Gal6S(b1-4)GlcNAc6S = target: Gal6S(b1-4)GlcNAc6S
# In short: as §1
# GalNAc(a1-3)Gal = target: GalNAc(a1-3)Gal
# In short: as §1
# GalNAc(a1-3)GalNAc = target: GalNAc(a1-3)GalNAc
# In short: as §1
# [9] = target: GalNAc(a1-3)GalNAc(b1-3)Gal(a1-4)Gal(b1-4)Glc
# In short: as §1
# [10] = target: GalNAc(a1-3)GalNAc(b1-3)Gal(a1-4)Gal(b1-4)GlcNAc
# In short: as §1
# GalNAc(b1-3)Gal = target: GalNAc(b1-3)Gal
# In short: as §1
# [11] = target: GalNAc(b1-3)Gal(a1-4)Gal(b1-4)GlcNAc
# In short: as §1
# [12] = target: GalNAc(b1-3)Gal(a1-4)Gal(b1-4)GlcNAc(b1-3)Gal(b1-4)Glc
# In short: as §1
# [13] = target: GalNAc(b1-3)Gal(a1-6)Gal(b1-4)Glc
# In short: as §1
# GalNAc(b1-3)GalNAc = target: GalNAc(b1-3)GalNAc
# In short: as §1
# GalNAc(b1-3)GlcNAc = target: GalNAc(b1-3)GlcNAc
# In short: as §1
# GalNAc(b1-4)Gal(b1-4)Glc = target: GalNAc(b1-4)Gal(b1-4)Glc
# In short: as §1
binder,measurement,setting,value
B1,glycan array binding signal (z-score),[1],-0.174
same,glycan array binding signal (z-score),[2],0.182
same,glycan array binding signal (z-score),[3],-0.244
same,glycan array binding signal (z-score),[4],0.103
same,glycan array binding signal (z-score),Gal(b1-4)GlcNAc6P,-0.318
same,glycan array binding signal (z-score),Gal(b1-6)Gal,-0.445
same,glycan array binding signal (z-score),Gal3S(b1-3)GalNAc,0.048
same,glycan array binding signal (z-score),Gal3S(b1-3)GlcNAc,-0.126
same,glycan array binding signal (z-score),[5],-0.449
same,glycan array binding signal (z-score),Gal3S(b1-4)Glc,-0.637
same,glycan array binding signal (z-score),Gal3S(b1-4)Glc6S,-0.337
same,glycan array binding signal (z-score),Gal3S(b1-4)GlcNAc,-0.025
same,glycan array binding signal (z-score),[6],1.68
same,glycan array binding signal (z-score),[7],-0.085
same,glycan array binding signal (z-score),[8],-0.291
same,glycan array binding signal (z-score),Gal3S4S(b1-4)GlcNAc,-0.191
same,glycan array binding signal (z-score),Gal3S6S(b1-4)GlcNAc,-0.253
same,glycan array binding signal (z-score),Gal3S6S(b1-4)GlcNAc6S,-0.44
same,glycan array binding signal (z-score),Gal4S(b1-4)GlcNAc,-0.448
same,glycan array binding signal (z-score),Gal4S6S(b1-4)GlcNAc,-0.307
same,glycan array binding signal (z-score),Gal6P(b1-4)GlcNAc,-0.032
same,glycan array binding signal (z-score),Gal6S(b1-3)GlcNAc,0.638
same,glycan array binding signal (z-score),Gal6S(b1-3)GlcNAc6S,0.147
same,glycan array binding signal (z-score),Gal6S(b1-4)Glc,0.383
same,glycan array binding signal (z-score),Gal6S(b1-4)Glc6S,-0.43
same,glycan array binding signal (z-score),Gal6S(b1-4)GlcNAc,1.87
same,glycan array binding signal (z-score),Gal6S(b1-4)GlcNAc6S,-0.252
same,glycan array binding signal (z-score),GalNAc(a1-3)Gal,3.52
same,glycan array binding signal (z-score),GalNAc(a1-3)GalNAc,0.36
same,glycan array binding signal (z-score),[9],0.105
same,glycan array binding signal (z-score),[10],-0.422
same,glycan array binding signal (z-score),GalNAc(b1-3)Gal,0.012
same,glycan array binding signal (z-score),[11],0.132
same,glycan array binding signal (z-score),[12],-0.135
same,glycan array binding signal (z-score),[13],-0.512
same,glycan array binding signal (z-score),GalNAc(b1-3)GalNAc,-0.649
same,glycan array binding signal (z-score),GalNAc(b1-3)GlcNAc,0.454
same,glycan array binding signal (z-score),GalNAc(b1-4)Gal(b1-4)Glc,0.581

# Pulled one by one from the list above (3):
binder,measurement,setting,value
B1,glycan array binding signal (z-score),Gal6S(b1-4)GlcNAc6S,-0.252
same,glycan array binding signal (z-score),[12],-0.135
same,glycan array binding signal (z-score),[8],-0.291
